In patent US20230331868A1:
No constants are given. Whether binding was seen depends on the method and setting. A result given as binding can be weak or reduced; the word gives no strength.

Legend:
[1] = molecular target: bovine submaxillary mucin (bovine); test: ELISA on BSM-coated wells
[2] = molecular target: bovine submaxillary mucin (bovine); test: ELISA on BSM-coated wells; binding not periodate sensitive

| binding [1] | binding [2] | Binder |
| --- | --- | --- |
| binds | – | Humanized 3F1 VL1,VH1 (antibody, V domains shown) VH: QVQLVQSGAEVKKPGASVKVSCKASGYTFTDHAIHWVRQAPGQGLEWMGYISPGNGDIKYNEKFKDRVTMTADKSSSTAYMQLRSLRSDDTAVYFCKRSLLALDYWGQGTLVTVSS VL: DIQMTQSPSSLSASVGDRVTITCKASQDVGTNIAWYQQKPGKAPKVLIYSASTRHTGVPSRFSGSGSGTDFTLTISSLQPEDFATYFCQQYSSFPLTFGQGTKVEIK |
| – | binds | Humanized 5G2-1B3 VL1,VH2 (antibody, V domains shown) VH: QVQLVQSGAEVKKPGASVKISCKASGYTFTDHAIHWVRQAPGQGLEWIGYFSPGNDDIKYNEKFKVRATLTADKSSSTAYMELRSLRSDDTAVYFCKRSYYGDWGQGTLVTVSS VL: DIQMTQSPSSLSASVGDRVTITCRASENIYSHLAWYQQKPGKAPKLLVYGATNLASGVPSRFSGSGSGTQFTLTISSLQPEDFATYYCQHFWGAPFTFGQGTKVEIK |
| binds | – | Humanized 2G12-2B2 VL2,VH2 (antibody, V domains shown) VH: QVQLVQSGAEVKKPGASVKISCKASGYTFTDHAIHWVRQAPGQGLEWIGYFSPGNDDIKYNEKFRGRVTLTADKSSSTAYMELRSLRSDDTAVYFCKRSLSTPYWGQGTLVTVSS VL: DIVMTQSPDSLAVSLGERVTMSCKSSQSLLNRGNHKNYLTWYQQKPGQPPKLLIYWASTRESGVPDRFSGSGSGTDFTLTISSLQAEDVAVYYCQNDYTYPYTFGQGTKVEIK |
